{"source": "paper PMC8452729", "binders": {"B1": {"name": "USP22 (enzyme, UniProt Q9UPT9 1-525)", "chain": "MVSRPEPEGEAMDAELAVAPPGCSHLGSFKVDNWKQNLRAIYQCFVWSGTAEARKRKAKSCICHVCGVHLNRLHSCLYCVFFGCFTKKHIHEHAKAKRHNLAIDLMYGGIYCFLCQDYIYDKDMEIIAKEEQRKAWKMQGVGEKFSTWEPTKRELELLKHNPKRRKITSNCTIGLRGLINLGNTCFMNCIVQALTHTPLLRDFFLSDRHRCEMQSPSSCLVCEMSSLFQEFYSGHRSPHIPYKLLHLVWTHARHLAGYEQQDAHEFLIAALDVLHRHCKGDDNGKKANNPNHCNCIIDQIFTGGLQSDVTCQVCHGVSTTIDPFWDISLDLPGSSTPFWPLSPGSEGNVVNGESHVSGTTTLTDCLRRFTRPEHLGSSAKIKCSGCHSYQESTKQLTMKKLPIVACFHLKRFEHSAKLRRKITTYVSFPLELDMTPFMASSKESRMNGQYQQPTDSLNNDNKYSLFAVVNHQGTLESGHYTSFIRQHKDQWFKCDDAIITKASIKDVLDSEGYLLFYHKQFLEYE"}}, "target": "AR-V7 (androgen receptor splice variant 7) (human (endogenous in C4-2EnzR)) (UniProt P10275)", "test": "co-IP; endogenous proteins in cell lysates (LNCaP-AI, C4-2; C4-2EnzR for Fig. 5F); AR IP antibody and USP22 WB antibody (Fig. 3I); Thermo Pierce Classic Magnetic IP/Co-IP Kit, western blot detection; cells with or without PCBP1-AS1 knock-down or rescue", "note": "Results are given in words; binding and its absence hold for the method and conditions named. Binding seen in cells or lysates may run through a third protein. Some entries that bind do so weakly or less than the wild type."}
{"binder": "B1", "values": [{"measurement": "binding", "value": "binds"}]}
